Assay results from patent US20080004290A1, “Anti-Cancer Agents” (THE UNIVERSITY OF QUEENSLAND, priority 2003, published 2008).
Some results were stated once for a whole list of compounds, not compound by compound.

Test system: MM96L melanoma cells
Experiment: Cell survival assay (clonogenic survival, SRB)
Assay type: cell-based, human
Details: most preferred compounds, exemplary examples; for Selectivity Index: IC50 (NFF)/IC50 (MM96L); for IC50: read-out: potency of IC50 against the MM96 melanoma cells
Method: The cytotoxicities of the compounds of the invention were determined by clonogenic survival of human cancer cells (MM96L, melanoma) and human normal cells (NFF, neonatal foreskin fibroblasts). Cells were incubated with the compounds at various concentrations of compound (0.01-10 μg/mL) for 24 hours, washed, and then grown for a further four days in the absence of hydroxamic acid before determining cell survival by cell count. The final readout involved staining with sulforhodamine B (SRB), a cost-effective method amenable to automation and high throughput analysis. At the technical level, “cell sensitivity” is often inferred from short term (1-2 day) observations such as apoptosis, which may not be a satisfactory model of clonogenic survival.
Cell Lines and Culture Medium. All cell lines used in this study have been described previously (Parsons et al., 1986; Todaro et al., 1980; Glenn et al., 2004). All cell lines were cultured in 10% heat-inactivated foetal calf serum (CSL, Australia) in RPMI 1640 medium supplemented with 100 U/mL penicillin, 100 μg/mL streptomycin, and 3 mM HEPES at 5% CO2, 99% humidity at 37° C. Primary human fibroblasts were obtained from neonatal foreskins and cultured in the above medium. Routine mycoplasma tests were performed using Hoechst stain^i and were always negative.
Cell Survival Assay. Cells were plated into 96-well microtitre plates at 5×10^3 cells/well, and allowed to adhere overnight. Test compounds were added to culture medium at the indicated concentrations, and plates incubated in the above conditions for 24 hours. Following this incubation period, compounds and media were removed, and replaced with fresh culture medium. Cells were then grown for a further 72 hours before assay using sulforhodamine B (SRB; Sigma, St. Louis, Mo.) as previously described. Briefly, the culture medium was removed from the 96-well microtitre plates and the plates washed twice with phosphate buffered saline (PBS), before the cells were fixed with methylated spirits for 15 minutes. The plates were then rinsed with tap water and the fixed cells stained with 50 μL/well of SRB solution (0.4% sulforhodamine B (w/v) in 1% (v/v) acetic acid) over a period of 1 hour. The SRB solution was then removed from the wells and the plates rapidly washed two times with 1% (v/v) acetic acid. Protein bound dye was then solubilised with the addition of 100 μL of 10 mM unbuffered Tris, and incubated for 15 min at 25° C. Plates were then read at 564 nm on a VERSA max tunable microplate reader (Molecular Devices, Sunnyvale, Calif.).

Structure (SMILES)	Selectivity Index	IC50 [nM]
CN(C)c1ccc(C(=O)N[C@@H](CCCCCC(=O)NO)C(=O)NCc2ccccc2)cc1 (racemic) [Example 124]	4	
CN(C)c1ccc(C(=O)NC(CCCCCC(=O)NO)C(=O)NC2CCCc3ccccc32)cc1 (racemic) [Example 125]	4	≤ 500
O=C(CCCCC[C@H](NC(=O)c1ccco1)C(=O)NCc1ccccc1)NO (racemic) [Example 133]	4	
O=C(CCCSC[C@H](NC(=O)c1ccc(Br)cc1)C(=O)NCc1ccccc1)NO [Example 24]	4	≤ 500
O=C(CCCSC[C@H](NC(=O)c1cc2ccccc2[nH]1)C(=O)NCc1ccccc1)NO [Example 40]	4	≤ 500
O=C(/C=C/c1ccccc1)N[C@@H](CSCCCC(=O)NO)C(=O)NCc1ccccc1 [Example 48]	4	≤ 500
CN(C)c1ccc(NC(=O)[C@H](CSCCCC(=O)NO)NC(=O)c2ccc(N(C)C)cc2)cc1 [Example 59]	4	
CN(C)c1ccc(C(=O)N[C@@H](CSCCCC(=O)NO)C(=O)Nc2cccc3c2CCCC3)cc1 [Example 66]	4	
CN(C)c1ccc(C(=O)N[C@@H](CSCCCC(=O)NO)C(=O)NC2CCCc3ccccc32)cc1 (stereo partly shown) [Example 67]	4	
O=C(/C=C/c1ccccc1)N[C@@H](CSCCCC(=O)NO)C(=O)NCc1ccncc1 [Example 100]	4	
CN(C)c1ccc(C(=O)N[C@@H](CCCCCC(=O)NO)C(=O)NCc2ccccc2)cc1 [Example 123]	4	
CN(C)c1ccc(C(=O)N[C@@H](CCCCCC(=O)NO)C(=O)Nc2cccc3cccnc23)cc1 [Example 126]	4	
O=C(CCCCC[C@H](NC(=O)c1cc2ccccc2[nH]1)C(=O)NCc1ccccc1)NO [Example 130]	4	
O=C(CCCCC[C@H](NC(=O)c1cc2ccccc2[nH]1)C(=O)NCc1ccccc1)NO [Example 131]	4	≤ 500
O=C(CCCCC[C@H](NC(=O)c1cc2ccccc2[nH]1)C(=O)Nc1cccc2cccnc12)NO [Example 132]	4	
O=C(/C=C/c1ccccc1)N[C@@H](CCCCCC(=O)NO)C(=O)NCc1ccccc1 [Example 137]	4	
O=C(/C=C/c1ccccc1)N[C@@H](CCCCCC(=O)NO)C(=O)NCc1ccccc1 [Example 138]	4	≤ 500
O=C(/C=C/c1ccccc1)N[C@@H](CCCCCC(=O)NO)C(=O)Nc1cccc2cccnc12 [Example 146]	4	
O=C(CCCCC[C@H](NC(=O)OCc1ccccc1)C(=O)Nc1cccc2cccnc12)NO [Example 148]	4	
O=C(CCCCC[C@H](NC(=O)OCc1ccccc1)C(=O)Nc1ccc(-c2ccccc2)cc1)NO [Example 160]	4	
O=C(CCCCC[C@H](NC(=O)Cc1c[nH]c2ccccc12)C(=O)NCc1ccccc1)NO [Example 162]	4	
O=C(CCCCC[C@H](NC(=O)c1cc2c(O)cccc2[nH]1)C(=O)NCc1ccccc1)NO [Example 166]	4	
